From US8003598 (dated 2011)
Non-standard residues stand in square brackets, D forms with d. Met(O) = CS(=O)CC[C@H](N)C(=O)O

Assay: general procedure: Fmoc solid-phase peptide synthesis; HBTU, HOBt and NMM
Conditions: whole synthesis, RP-HPLC profile

In the case of “cyclo(G[Met(O)][Met(O)]CVTHCNG) (cysteine pairing not given here)”, the “final HPLC purity” value is reported as 99%.
